Measurements reported in the supplement of paper PMC12819154, “High-throughput peptide-centric local stability assay extends protein–ligand identification to membrane proteins, tissues and bacteria” (Nature Structural & Molecular Biology, 2025).
This is one part of the list. Small differences around the control level are noise.

The chains behind the UniProt entries cited, without tags or fusion partners. Where a name states a change or a piece, a line headed by the entry shows the natural chain unless it says otherwise.
UniProt Q9Y4E5: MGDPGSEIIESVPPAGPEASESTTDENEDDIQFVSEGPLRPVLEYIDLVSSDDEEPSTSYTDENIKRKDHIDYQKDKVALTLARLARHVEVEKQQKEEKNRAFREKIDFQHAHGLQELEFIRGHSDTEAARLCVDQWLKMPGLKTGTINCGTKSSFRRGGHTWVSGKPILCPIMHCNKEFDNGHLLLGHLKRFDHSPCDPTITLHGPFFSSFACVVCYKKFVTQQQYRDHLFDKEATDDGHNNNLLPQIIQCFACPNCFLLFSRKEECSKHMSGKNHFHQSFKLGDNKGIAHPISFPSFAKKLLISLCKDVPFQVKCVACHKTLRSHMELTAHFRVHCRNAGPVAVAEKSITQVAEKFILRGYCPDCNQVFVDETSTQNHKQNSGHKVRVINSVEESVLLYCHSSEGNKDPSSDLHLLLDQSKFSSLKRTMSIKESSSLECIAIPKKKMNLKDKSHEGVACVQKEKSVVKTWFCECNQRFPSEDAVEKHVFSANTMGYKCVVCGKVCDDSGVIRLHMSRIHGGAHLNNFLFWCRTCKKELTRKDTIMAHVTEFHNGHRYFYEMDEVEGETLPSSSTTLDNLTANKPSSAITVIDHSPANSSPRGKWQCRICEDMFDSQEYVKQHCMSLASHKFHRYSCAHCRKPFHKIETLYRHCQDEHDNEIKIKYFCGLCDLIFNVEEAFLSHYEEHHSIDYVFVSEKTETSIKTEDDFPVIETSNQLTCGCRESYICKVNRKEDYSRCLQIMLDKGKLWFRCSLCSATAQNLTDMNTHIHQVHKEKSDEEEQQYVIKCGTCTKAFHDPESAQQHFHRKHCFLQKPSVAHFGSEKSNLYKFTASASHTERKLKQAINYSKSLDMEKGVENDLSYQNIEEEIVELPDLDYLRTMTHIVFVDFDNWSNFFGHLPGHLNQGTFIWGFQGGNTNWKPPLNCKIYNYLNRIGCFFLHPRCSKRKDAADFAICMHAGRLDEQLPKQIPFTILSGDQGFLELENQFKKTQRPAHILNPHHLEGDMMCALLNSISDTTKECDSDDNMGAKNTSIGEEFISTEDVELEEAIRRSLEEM
UniProt Q9Y6B7: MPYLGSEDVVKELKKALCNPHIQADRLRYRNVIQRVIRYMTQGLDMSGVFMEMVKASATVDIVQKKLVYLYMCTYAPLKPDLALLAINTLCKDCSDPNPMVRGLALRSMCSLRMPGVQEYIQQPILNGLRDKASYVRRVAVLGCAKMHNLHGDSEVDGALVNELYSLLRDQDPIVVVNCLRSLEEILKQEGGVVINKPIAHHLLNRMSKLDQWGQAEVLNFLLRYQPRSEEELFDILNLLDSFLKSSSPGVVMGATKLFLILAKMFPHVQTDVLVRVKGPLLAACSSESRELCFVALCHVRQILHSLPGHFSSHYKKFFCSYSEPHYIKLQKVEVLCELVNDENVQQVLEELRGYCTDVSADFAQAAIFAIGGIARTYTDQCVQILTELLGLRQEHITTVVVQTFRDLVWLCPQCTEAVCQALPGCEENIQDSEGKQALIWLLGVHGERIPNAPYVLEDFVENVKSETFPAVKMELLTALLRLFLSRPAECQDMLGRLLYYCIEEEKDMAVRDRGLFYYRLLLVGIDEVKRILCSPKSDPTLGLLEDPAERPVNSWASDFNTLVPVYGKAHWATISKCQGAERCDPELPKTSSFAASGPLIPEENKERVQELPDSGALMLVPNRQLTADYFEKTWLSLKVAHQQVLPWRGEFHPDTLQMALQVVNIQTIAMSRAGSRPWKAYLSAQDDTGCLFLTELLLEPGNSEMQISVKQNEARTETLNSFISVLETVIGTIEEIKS
UniProt Q9Y5T5, whole entry, looked up: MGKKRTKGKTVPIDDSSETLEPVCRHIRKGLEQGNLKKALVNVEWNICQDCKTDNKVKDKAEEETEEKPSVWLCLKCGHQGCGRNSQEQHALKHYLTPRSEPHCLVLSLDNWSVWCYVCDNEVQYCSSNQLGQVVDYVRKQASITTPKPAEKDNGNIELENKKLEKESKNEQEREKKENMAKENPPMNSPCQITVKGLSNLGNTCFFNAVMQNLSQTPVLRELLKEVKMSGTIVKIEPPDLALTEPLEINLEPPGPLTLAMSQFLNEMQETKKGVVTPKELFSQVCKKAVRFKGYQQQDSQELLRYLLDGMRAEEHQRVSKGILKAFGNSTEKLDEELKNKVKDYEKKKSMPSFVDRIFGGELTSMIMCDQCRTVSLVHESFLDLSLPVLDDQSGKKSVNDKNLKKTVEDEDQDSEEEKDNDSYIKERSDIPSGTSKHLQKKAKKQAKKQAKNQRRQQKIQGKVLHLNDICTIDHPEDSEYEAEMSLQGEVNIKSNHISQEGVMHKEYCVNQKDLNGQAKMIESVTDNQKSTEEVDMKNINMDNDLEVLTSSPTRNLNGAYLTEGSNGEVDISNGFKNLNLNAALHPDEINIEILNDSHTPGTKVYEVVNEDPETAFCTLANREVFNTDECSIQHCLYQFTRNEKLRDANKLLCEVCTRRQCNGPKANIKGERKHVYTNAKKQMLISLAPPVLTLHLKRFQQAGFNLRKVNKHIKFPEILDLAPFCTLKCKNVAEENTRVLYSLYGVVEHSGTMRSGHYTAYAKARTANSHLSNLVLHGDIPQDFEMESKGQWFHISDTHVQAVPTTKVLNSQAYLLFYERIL
UniProt Q9Y5J1: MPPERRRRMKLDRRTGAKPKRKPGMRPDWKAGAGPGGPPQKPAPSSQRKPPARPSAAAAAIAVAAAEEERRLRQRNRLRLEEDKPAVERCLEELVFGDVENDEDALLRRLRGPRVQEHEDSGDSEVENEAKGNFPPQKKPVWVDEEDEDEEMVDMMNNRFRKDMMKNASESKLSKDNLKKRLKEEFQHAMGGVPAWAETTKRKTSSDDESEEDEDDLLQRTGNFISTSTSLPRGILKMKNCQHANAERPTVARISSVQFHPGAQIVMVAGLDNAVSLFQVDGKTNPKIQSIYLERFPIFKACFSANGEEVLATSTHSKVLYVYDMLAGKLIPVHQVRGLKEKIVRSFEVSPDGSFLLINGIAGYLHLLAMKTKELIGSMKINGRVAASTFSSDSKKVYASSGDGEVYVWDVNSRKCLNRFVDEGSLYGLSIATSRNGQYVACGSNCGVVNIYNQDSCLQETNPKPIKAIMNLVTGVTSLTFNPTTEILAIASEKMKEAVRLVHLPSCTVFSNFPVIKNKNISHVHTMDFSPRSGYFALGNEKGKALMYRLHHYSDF
UniProt Q9Y2I1: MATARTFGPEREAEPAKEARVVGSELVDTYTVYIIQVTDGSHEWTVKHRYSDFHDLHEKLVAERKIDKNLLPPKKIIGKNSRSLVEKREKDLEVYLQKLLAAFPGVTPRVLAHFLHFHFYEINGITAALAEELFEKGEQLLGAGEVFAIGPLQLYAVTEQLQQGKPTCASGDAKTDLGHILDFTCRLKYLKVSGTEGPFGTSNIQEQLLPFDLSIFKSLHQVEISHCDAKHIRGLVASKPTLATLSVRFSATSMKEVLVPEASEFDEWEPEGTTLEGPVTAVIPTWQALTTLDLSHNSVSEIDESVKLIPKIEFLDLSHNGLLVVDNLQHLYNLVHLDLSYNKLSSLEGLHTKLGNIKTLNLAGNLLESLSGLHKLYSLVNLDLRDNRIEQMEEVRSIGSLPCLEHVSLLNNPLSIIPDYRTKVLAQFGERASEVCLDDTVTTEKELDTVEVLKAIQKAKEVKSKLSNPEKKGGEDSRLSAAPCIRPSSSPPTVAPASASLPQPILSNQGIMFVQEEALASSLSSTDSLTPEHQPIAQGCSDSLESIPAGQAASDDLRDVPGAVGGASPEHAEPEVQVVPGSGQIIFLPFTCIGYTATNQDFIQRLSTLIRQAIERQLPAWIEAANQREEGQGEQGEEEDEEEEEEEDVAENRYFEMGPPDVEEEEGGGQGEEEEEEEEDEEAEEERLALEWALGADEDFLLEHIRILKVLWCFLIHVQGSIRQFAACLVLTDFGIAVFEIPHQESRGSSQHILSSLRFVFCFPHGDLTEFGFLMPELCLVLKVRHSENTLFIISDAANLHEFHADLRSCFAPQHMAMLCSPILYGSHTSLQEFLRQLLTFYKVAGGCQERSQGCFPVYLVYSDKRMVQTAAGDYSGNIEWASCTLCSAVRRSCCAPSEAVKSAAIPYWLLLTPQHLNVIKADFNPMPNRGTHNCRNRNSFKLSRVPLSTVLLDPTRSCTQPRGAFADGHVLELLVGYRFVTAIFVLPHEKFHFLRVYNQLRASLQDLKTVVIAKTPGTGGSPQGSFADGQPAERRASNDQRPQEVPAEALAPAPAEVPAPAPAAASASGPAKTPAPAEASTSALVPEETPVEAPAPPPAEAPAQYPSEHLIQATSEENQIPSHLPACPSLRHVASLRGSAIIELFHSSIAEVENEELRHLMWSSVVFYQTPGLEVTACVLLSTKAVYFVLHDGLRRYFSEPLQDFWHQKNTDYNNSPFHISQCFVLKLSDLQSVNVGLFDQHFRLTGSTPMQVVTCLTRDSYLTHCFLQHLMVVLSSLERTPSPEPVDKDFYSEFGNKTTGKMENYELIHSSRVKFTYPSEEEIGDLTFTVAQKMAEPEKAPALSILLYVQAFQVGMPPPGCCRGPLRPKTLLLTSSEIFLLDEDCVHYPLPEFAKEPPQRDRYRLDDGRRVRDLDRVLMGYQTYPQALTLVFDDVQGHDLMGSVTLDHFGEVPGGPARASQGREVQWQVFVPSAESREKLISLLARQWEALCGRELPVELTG
UniProt Q9Y592: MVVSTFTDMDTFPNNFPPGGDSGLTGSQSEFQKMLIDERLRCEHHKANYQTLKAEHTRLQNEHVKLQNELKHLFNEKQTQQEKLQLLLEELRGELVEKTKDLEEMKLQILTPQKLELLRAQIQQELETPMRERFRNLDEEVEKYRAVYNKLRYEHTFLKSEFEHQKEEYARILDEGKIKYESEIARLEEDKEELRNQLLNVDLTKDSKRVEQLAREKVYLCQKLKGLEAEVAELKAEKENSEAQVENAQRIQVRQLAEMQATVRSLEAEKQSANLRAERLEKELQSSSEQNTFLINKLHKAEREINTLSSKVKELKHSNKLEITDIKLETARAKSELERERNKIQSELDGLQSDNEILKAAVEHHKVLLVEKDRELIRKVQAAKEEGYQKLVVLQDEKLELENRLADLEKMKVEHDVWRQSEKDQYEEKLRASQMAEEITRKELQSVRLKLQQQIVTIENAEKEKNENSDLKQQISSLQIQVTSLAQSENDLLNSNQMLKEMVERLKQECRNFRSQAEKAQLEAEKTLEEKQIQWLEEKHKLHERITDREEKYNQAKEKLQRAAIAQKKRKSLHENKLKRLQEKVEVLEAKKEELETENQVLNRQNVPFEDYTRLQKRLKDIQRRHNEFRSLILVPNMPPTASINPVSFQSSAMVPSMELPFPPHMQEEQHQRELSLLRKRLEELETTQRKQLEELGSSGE
UniProt Q9Y3B6: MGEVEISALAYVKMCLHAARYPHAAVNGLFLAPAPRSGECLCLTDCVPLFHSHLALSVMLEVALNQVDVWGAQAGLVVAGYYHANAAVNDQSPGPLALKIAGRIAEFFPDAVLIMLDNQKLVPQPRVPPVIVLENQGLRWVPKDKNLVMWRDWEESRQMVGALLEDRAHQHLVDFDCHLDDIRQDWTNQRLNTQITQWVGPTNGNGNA
UniProt Q9Y3D8, whole entry: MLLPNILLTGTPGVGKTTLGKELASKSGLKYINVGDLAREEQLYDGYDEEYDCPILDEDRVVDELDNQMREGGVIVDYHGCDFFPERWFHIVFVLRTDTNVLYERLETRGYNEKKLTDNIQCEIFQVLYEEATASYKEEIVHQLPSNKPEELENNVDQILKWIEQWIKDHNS
UniProt Q9Y597: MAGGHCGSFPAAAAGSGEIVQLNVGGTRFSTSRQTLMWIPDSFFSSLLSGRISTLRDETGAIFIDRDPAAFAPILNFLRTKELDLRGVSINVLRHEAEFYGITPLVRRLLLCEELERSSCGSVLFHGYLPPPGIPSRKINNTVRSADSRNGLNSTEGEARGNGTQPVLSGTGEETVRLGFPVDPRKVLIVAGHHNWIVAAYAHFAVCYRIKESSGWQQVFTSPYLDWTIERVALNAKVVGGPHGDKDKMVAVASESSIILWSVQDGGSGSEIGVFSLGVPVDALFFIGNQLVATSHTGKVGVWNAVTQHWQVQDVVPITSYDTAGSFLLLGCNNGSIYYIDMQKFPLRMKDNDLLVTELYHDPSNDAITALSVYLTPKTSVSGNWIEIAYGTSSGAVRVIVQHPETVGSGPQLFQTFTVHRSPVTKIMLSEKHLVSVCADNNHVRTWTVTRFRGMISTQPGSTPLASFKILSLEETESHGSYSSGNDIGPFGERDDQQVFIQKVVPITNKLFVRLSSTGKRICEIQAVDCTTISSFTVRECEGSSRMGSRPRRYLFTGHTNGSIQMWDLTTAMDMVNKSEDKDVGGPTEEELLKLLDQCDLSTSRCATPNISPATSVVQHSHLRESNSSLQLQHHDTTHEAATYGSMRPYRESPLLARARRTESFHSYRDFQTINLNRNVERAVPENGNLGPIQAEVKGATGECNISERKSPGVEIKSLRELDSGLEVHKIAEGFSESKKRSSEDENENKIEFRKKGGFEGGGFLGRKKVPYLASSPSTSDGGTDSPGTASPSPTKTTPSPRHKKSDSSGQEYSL

compound: Cc1nc(Nc2ncc(C(=O)Nc3c(C)cccc3Cl)s2)cc(N2CCN(CCO)CC2)n1 [dasatinib]; test: log2 fold change of tryptic peptide abundance, ligand vs vehicle (limited proteolysis) (log2 ratio); higher = more trypsin-susceptible (destabilized); details: ligand concentration: 5 uM; sample: K562 cleared lysate

For “UniProt Q9Y312 (peptide sequence: DRVGQNLPR, peptide start residue: 172)”, which log2 fold change is on record?
The log2 fold change was 0.0571.

For “POLR3K (peptide sequence: SADEPMTTFYK, peptide start residue: 86) (UniProt Q9Y2Y1)”, which log2 fold change is on record?
The log2 fold change was 0.0597.

For “UniProt Q9Y2S6 (peptide sequence: AAGKGPLATGGIKK, peptide start residue: 47)”, which log2 fold change is on record?
The log2 fold change was -0.313.

Which log2 fold change does the source give for “ZNF451 (peptide sequence: AFHDPESAQQHFHR, peptide start residue: 797) (UniProt Q9Y4E5)” here?
Its log2 fold change is -0.777.

For “LRRFIP2 (peptide sequence: ESLSEVEEK, peptide start residue: 370) (UniProt Q9Y608)”, which log2 fold change is on record?
The log2 fold change was 0.111.

For “UniProt Q9Y2J4 (peptide sequence: LIQEQLR, peptide start residue: 102)”, which log2 fold change is on record?
Its log2 fold change is 0.253.

For “AP4B1 (peptide sequence: TSSFAASGPLIPEENKER, peptide start residue: 591) (UniProt Q9Y6B7)”, which log2 fold change is on record?
The log2 fold change was 0.183.

For “SUPT16H (peptide sequence: EGIVKQDSLVINLNR, peptide start residue: 643) (UniProt Q9Y5B9)”, which log2 fold change is on record?
Its log2 fold change is 0.374.

With “SBDS (peptide sequence: FILPVNEGK, peptide start residue: 176) (UniProt Q9Y3A5)” as the target, how does the log2 fold change read?
The log2 fold change was -0.209.

How did the log2 fold change turn out when “UniProt Q9Y4F4 (peptide sequence: KPHATEQK, peptide start residue: 1642)” was run?
The log2 fold change was -0.268.

“TPRKB (peptide sequence: NLPEIMNITEVKK, peptide start residue: 135) (UniProt Q9Y3C4)” was tested. Which log2 fold change did it give?
Its log2 fold change is 0.0707.

For “SLC5A6 (peptide sequence: SYGQDHLDTGLFPEKPR, peptide start residue: 585) (UniProt Q9Y289)”, which log2 fold change is on record?
The log2 fold change was 0.543.

With “EXOSC1 (peptide sequence: HGYIFSSLAGCLMK, peptide start residue: 30) (UniProt Q9Y3B2)” as the target, how does the log2 fold change read?
The log2 fold change was 0.0636.

Which log2 fold change does the source give for “F11R (peptide sequence: KVIYSQPSAR, peptide start residue: 277) (UniProt Q9Y624)” here?
Its log2 fold change is -0.0788.

For “USP16 (peptide sequence: QMLISLAPPVLTLHLK, peptide start residue: 683) (UniProt Q9Y5T5)”, which log2 fold change is on record?
The log2 fold change was 0.709.

For “UTP18 (peptide sequence: LEEDKPAVER, peptide start residue: 80) (UniProt Q9Y5J1)”, which log2 fold change is on record?
Its log2 fold change is -0.38.

With “NISCH (peptide sequence: YFSEPLQDFWHQK, peptide start residue: 1198) (UniProt Q9Y2I1)” as the target, how does the log2 fold change read?
The log2 fold change was 0.111.

How did the log2 fold change turn out when “UniProt Q9Y592 (peptide sequence: QNVPFEDYTR, peptide start residue: 605)” was run?
The log2 fold change was 0.145.

For “UniProt Q9Y3B6 (peptide sequence: YPHAAVNGLFLAPAPR, peptide start residue: 21)”, which log2 fold change is on record?
The log2 fold change was 0.404.

“DYNC1LI1 (peptide sequence: KFCLQYGAALIYTSVKENK, peptide start residue: 273) (UniProt Q9Y6G9)” was tested. Which log2 fold change did it give?
Its log2 fold change is 0.605.

With “HBS1L (peptide sequence: ALSGVLEQDRVQSLKDK, peptide start residue: 115) (UniProt Q9Y450)” as the target, how does the log2 fold change read?
Its log2 fold change is -0.641.

“UniProt Q9Y2Q5 (peptide sequence: VANLLLCMYAK, peptide start residue: 86)” was tested. Which log2 fold change did it give?
The log2 fold change was 0.0743.

“NOSIP (peptide sequence: DMVDPVTGDKLTDRDIIVLQR, peptide start residue: 258) (UniProt Q9Y314)” was tested. Which log2 fold change did it give?
The log2 fold change was 2.18.

With “WDR7 (peptide sequence: GGSFLTGKR, peptide start residue: 730) (UniProt Q9Y4E6)” as the target, how does the log2 fold change read?
The log2 fold change was 0.446.

Which log2 fold change does the source give for “GDA (peptide sequence: DLHIQSHISENRDEVEAVK, peptide start residue: 234) (UniProt Q9Y2T3)” here?
The log2 fold change was 0.0575.

For “UniProt Q9Y6E0 (peptide sequence: ADPEELFTK, peptide start residue: 30)”, which log2 fold change is on record?
Its log2 fold change is -0.38.

How did the log2 fold change turn out when “RNF114 (peptide sequence: LFHSTDTK, peptide start residue: 162) (UniProt Q9Y508)” was run?
The log2 fold change was 0.203.

How did the log2 fold change turn out when “TRAPPC1 (peptide sequence: NGVCLHYSEWHR, peptide start residue: 12) (UniProt Q9Y5R8)” was run?
Its log2 fold change is -0.325.

With “C15orf41 (peptide sequence: HAIGHEHEVLLR, peptide start residue: 159) (UniProt Q9Y2V0)” as the target, how does the log2 fold change read?
The log2 fold change was 0.321.

For “AP4S1 (peptide sequence: FFLMVNK, peptide start residue: 4) (UniProt Q9Y587)”, which log2 fold change is on record?
Its log2 fold change is -0.155.

For “ASB1 (peptide sequence: STPVYHASR, peptide start residue: 145) (UniProt Q9Y576)”, which log2 fold change is on record?
Its log2 fold change is -0.0816.

How did the log2 fold change turn out when “GIT1 (peptide sequence: LQAENLQLR, peptide start residue: 464) (UniProt Q9Y2X7)” was run?
Its log2 fold change is -0.23.

How did the log2 fold change turn out when “FAM32A (peptide sequence: LLEAMGTSK, peptide start residue: 37) (UniProt Q9Y421)” was run?
Its log2 fold change is -0.0738.

With “AK6 (peptide sequence: WIEQWIKDHNS, peptide start residue: 162) (UniProt Q9Y3D8)” as the target, how does the log2 fold change read?
The log2 fold change was -0.0836.

“KCTD3 (peptide sequence: IAEGFSESK, peptide start residue: 731) (UniProt Q9Y597)” was tested. Which log2 fold change did it give?
The log2 fold change was -0.083.

With “WBP11 (peptide sequence: ENPDIYKELR, peptide start residue: 99) (UniProt Q9Y2W2)” as the target, how does the log2 fold change read?
The log2 fold change was -0.222.

Which log2 fold change does the source give for “NUBP2 (peptide sequence: AVHQCDRGWAPVFLDR, peptide start residue: 68) (UniProt Q9Y5Y2)” here?
The log2 fold change was 0.386.
